# Values joined by “and” are separate entries in the source; they are usually repeats but may differ in a detail not shown here. Equal entries are not always repeated. Structures can show the parent of a compound that is named as a salt. ± gives the standard deviation of the averaged measurements. Some of the results follow. Baselines shift from plate to plate; read single values as rough.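 Culture-activated primary human stellate myofibroblasts, where regained lipid droplets signal inactivation. Value: share of Hoechst-counted cells above a per-plate Bodipy cutoff, in duplicate wells, with DMSO negative and nortriptyline positive controls on each plate. Hits: a control-normalized score above the plate's top-tenth-percentile nortriptyline wells, or one of a plate's three best wells. Final well concentrations are not given.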
# Test system: primary human hepatic stellate cells (donor 1)
# Test: percent Bodipy-positive cells; higher = more lipid droplet accumulation
# Details: 48 h
# [1] = library stock concentration: 10 mM
# [2] = library stock concentration: 3.33 mM
# [3] = library stock concentration: 80 uM
# [4] = library stock concentration: 400 uM
# [5] = library stock concentration: 2 mM
# [6] = library stock concentration: 1 mM
smiles,measurement,setting,value
CC1/C=C/C=C/C=C/C=C/C=C/C=C/C=C/C(OC2O[C@H](C)[C@@H](O)[C@H](N)[C@@H]2O)CC(O)C(C(=O)O)C(O)CC(=O)CC(O)CC(O)CC(O)CC(=O)CCCC(=O)CC(=O)OC1C(C)CC(C)C(O)CC(=O)c1ccc(N)cc1 (stereo not given in full),percent Bodipy-positive cells,[1],42.6 ± 14%
CCC1(O)CC2CN(CCc3c([nH]c4ccccc34)[C@@](C(=O)OC)(c3cc4c(cc3OC)N(C)C3[C@]45CCN4CC=C[C@@](CC)([C@@H](OC(C)=O)[C@]3(O)C(=O)OC)[C@H]45)C2)C1.O=S(=O)(O)O (stereo not given in full) [Vinblastine sulfate salt],percent Bodipy-positive cells,[1],99.81 ± 0.27%
CCOC(=O)c1cnc2c(cnn2CC)c1NN=C(C)C [Etazolate],percent Bodipy-positive cells,library stock concentration: 6.9 mM,7.96 ± 1.4%
C[C@@H]1C[C@H]2[C@@H]3CCC4=CC(=O)C=C[C@]4(C)[C@@]3(Cl)[C@@H](O)C[C@]2(C)[C@@]1(OC(=O)c1ccco1)C(=O)CCl [Mometasone furoate],percent Bodipy-positive cells,,37.23 ± 0.32%
same,percent Bodipy-positive cells,[2],18.7 ± 3.2%
same,percent Bodipy-positive cells,[1],70.8 ± 0.8%
CCOC(=O)[C@H](CCc1ccccc1)N[C@@H](C)C(=O)N1C(=O)N(C)C[C@H]1C(=O)O [Imidapril HCl],percent Bodipy-positive cells,[2],9.62 ± 3.9%
same,percent Bodipy-positive cells,[1],23.2 ± 9.2%
c1coc(CNc2ncnc3[nH]cnc23)c1 [Kinetin],percent Bodipy-positive cells,[2],9.601 ± 0.059%
same,percent Bodipy-positive cells,[1],21.3% and 19.9%
CN1CCN(CCCN2c3ccccc3Sc3ccc(C(F)(F)F)cc32)CC1.Cl.Cl [Trifluoperazine],percent Bodipy-positive cells,library stock concentration: 10.4 mM,90.2 ± 2.3%
C[C@]12CCC3=C4CCC(=O)C=C4CC[C@H]3[C@@H]1CC[C@@]2(O)CC#N [Dienogest],percent Bodipy-positive cells,[2],12.9 ± 6.4%
same,percent Bodipy-positive cells,[1],18.4 ± 3.9%
S=c1[nH]c(-c2ccccc2)cn1-c1ccccc1,percent Bodipy-positive cells,[1],35.4 ± 5.6%
CCOc1ccc2nc(S(N)(=O)=O)sc2c1 [Ethoxzolamide],percent Bodipy-positive cells,library stock concentration: 7.7 mM,11.5 ± 11%
Nc1ncnc2c1ncn2C1OC(COP(=O)(O)O)C(O)C1O (stereo not given) [Adenosine 5'-monophosphate monohydrate],percent Bodipy-positive cells,,34.8 ± 1.1%
CCN(CC)CCOc1ccc2c(c1)C(=O)c1cc(OCCN(CC)CC)ccc1-2 [Tilorone],percent Bodipy-positive cells,[1],91.81 ± 0.37%
COc1cc2ncnc(-n3nc(-c4ccccn4)nc3N)c2cc1OC,percent Bodipy-positive cells,[3],11.2 ± 5.4%
same,percent Bodipy-positive cells,[4],20.7 ± 6.4%
same,percent Bodipy-positive cells,[5],18.5 ± 0.75%
same,percent Bodipy-positive cells,[1],14.5 ± 0.84%
COc1cc(/C=C/c2ccc(Cl)cc2)cc(OC)c1,percent Bodipy-positive cells,[6],11.1 ± 2.5%
CCCCCCCC/C=C/CCCCCCCC(=O)O [Elaidic Acid],percent Bodipy-positive cells,[6],7.71 ± 1.9%
O=C(O)c1cc(/N=N/c2ccc(S(=O)(=O)Nc3ccccn3)cc2)ccc1O,percent Bodipy-positive cells,[1],3.67 ± 1.3%
O=C(O)c1cc(/N=N/c2ccc(S(=O)(=O)Nc3ccccn3)cc2)ccc1O [Sulfasalazine],percent Bodipy-positive cells,,23.8 ± 8.7%
same,percent Bodipy-positive cells,[2],14.5 ± 14%
same,percent Bodipy-positive cells,library stock concentration: 5 mM,7.25% and 16.2%
same,percent Bodipy-positive cells,[1],11.4% and 17.9%
C1[C@@H](N(C)[C@@H]2C1)C[C@@H](OC(c3ccccc3)c4ccccc4)C2.CS(O)(=O)=O (stereo not given in full) [Benztropine mesylate],percent Bodipy-positive cells,[1],91.2 ± 4.3%
C=C1c2cccc(O)c2C(O)=C2C(=O)[C@]3(O)C(O)=C(C(N)=O)C(=O)[C@@H](N(C)C)[C@@H]3[C@@H](O)[C@H]12 [Methacycline HCl],percent Bodipy-positive cells,[2],6.655 ± 0.017%
same,percent Bodipy-positive cells,[1],9.617 ± 0.066%
CCCCC[C@H](O)/C=C/[C@H]1[C@H](O)CC(=O)[C@@H]1C/C=C\CCCC(=O)OCC(O)CO (stereo not given in full) [Prostaglandin E2-1-glyceryl ester],percent Bodipy-positive cells,[6],11.1 ± 1.2%
O=C(O)c1cc2cc(Cc3cccnc3)ccc2o1 [Furegrelate (sodium salt)],percent Bodipy-positive cells,[6],8.96 ± 1.3%
COC(=O)C[C@](O)(CCCC(C)(C)O)C(=O)O[C@@H]1C(OC)=C[C@]23CCCN2CCc2cc4c(cc2[C@H]13)OCO4 [Homoharringtonine],percent Bodipy-positive cells,[1],88.3 ± 2.8%
NC(=O)c1ccc(I)c([N+](=O)[O-])c1 [Iniparib],percent Bodipy-positive cells,[3],37.2 ± 0.52%
same,percent Bodipy-positive cells,[4],52.2 ± 1.5%
same,percent Bodipy-positive cells,[5],36.2 ± 12%
same,percent Bodipy-positive cells,[1],39.2 ± 8.3%
NC(=O)c1ccc(I)c([N+](=O)[O-])c1 [Iniparib (BSI-201)],percent Bodipy-positive cells,[2],7.5 ± 0.1%
same,percent Bodipy-positive cells,[1],15.6 ± 7.1%
O=C(O)c1cc(N(Cc2ccccc2O)Cc2cc(O)ccc2O)ccc1O [Lavendustin A],percent Bodipy-positive cells,library stock concentration: 13.1 mM,10.7 ± 3.6%
COc1ccc(C2=N[C@@H](c3ccc(Cl)cc3)[C@@H](c3ccc(Cl)cc3)N2C(=O)N2CCNC(=O)C2)c(OC(C)C)c1 [Nutlin-3],percent Bodipy-positive cells,[2],23.1 ± 3.1%
same,percent Bodipy-positive cells,[1],73.3 ± 7.5%
COc1ccc(C2=N[C@@H](c3ccc(Cl)cc3)[C@@H](c3ccc(Cl)cc3)N2C(=O)N2CCNC(=O)C2)c(OC(C)C)c1,percent Bodipy-positive cells,[6],21.8 ± 11%
CN/C(=N\CCSCc1nc[nH]c1C)NC#N [Cimetidine],percent Bodipy-positive cells,,26.1 ± 0.43%
same,percent Bodipy-positive cells,[2],7.36 ± 1.4%
same,percent Bodipy-positive cells,library stock concentration: 7.9 mM,11.1% and 13.7%
"c1ccc(C2CN3CCSC3=N2)cc1 (single isomer, unassigned; (-)) [(-)-Tetramisole hydrochloride]",percent Bodipy-positive cells,[1],36.5 ± 4.1%
C=CC(=O)Nc1cc2c(Nc3ccc(F)c(Cl)c3)ncnc2cc1OCCCN1CCOCC1,percent Bodipy-positive cells,[1],79.4 ± 8.4%
CCc1cccc(CC)c1NC(=O)CN(CC(=O)O)CC(=O)O [Etifenin],percent Bodipy-positive cells,,40.3 ± 7.2%

# Quoted at random: three entries already listed, in no set order.
smiles,measurement,setting,value
CN/C(=N\CCSCc1nc[nH]c1C)NC#N [Cimetidine],percent Bodipy-positive cells,library stock concentration: 7.9 mM,11.1% and 13.7%
COc1cc2ncnc(-n3nc(-c4ccccn4)nc3N)c2cc1OC,percent Bodipy-positive cells,[3],11.2 ± 5.4%
CC1/C=C/C=C/C=C/C=C/C=C/C=C/C=C/C(OC2O[C@H](C)[C@@H](O)[C@H](N)[C@@H]2O)CC(O)C(C(=O)O)C(O)CC(=O)CC(O)CC(O)CC(O)CC(=O)CCCC(=O)CC(=O)OC1C(C)CC(C)C(O)CC(=O)c1ccc(N)cc1 (stereo not given in full),percent Bodipy-positive cells,[1],42.6 ± 14%

# — the supplement of paper PMC9135407
